Data as given in PubChem BioAssay AID1259308 (NCATS, 2017).

Test: 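Genes whose loss raises luciferase production in HEK293 cells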 (primary screen)
System: human HEK293 embryonic kidney cells stably expressing firefly luciferase (HEK-CMV-Luc2-Hygro)
Reagent: single siRNA against human genes, 0.8 pmol siRNA per well
Duration: 72 h
Measured: 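Luciferase light (ONE-Glo) measured on one replicate plate set and viability (CellTiter-Glo) on the other, scaled to a negative control siRNA, with robust z-scores and luciferase per cell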
Reading the numbers: total luciferase, z-score: higher = more reporter protein produced
Call rule: 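An siRNA counts as active if its total luciferase robust z-score exceeds 3; genes with two or more such siRNAs out of three were retested with fresh siRNAs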
Calls: active = raised luciferase; inactive = no rise
This is a random part of about 59,000 reagents. Over the whole deposit, about 1,510 (2.6%) are marked active. 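Calls use total luciferase alone and ignore viability, so some active siRNAs may act by altering cell number.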 The numbers tell different reagents against one gene apart. Not all columns of the deposit are shown.

{"gene knocked down": "PNPLA1", "siRNA no.": 1, "total luciferase, z-score": 0.478, "Call": "inactive"}
{"gene knocked down": "PNPLA1", "siRNA no.": 2, "total luciferase, z-score": -0.0982, "Call": "inactive"}
{"gene knocked down": "PNPLA1", "siRNA no.": 3, "total luciferase, z-score": -0.0171, "Call": "inactive"}
{"gene knocked down": "KIF1B", "siRNA no.": 1, "total luciferase, z-score": 0.612, "Call": "inactive"}
{"gene knocked down": "KIF1B", "siRNA no.": 2, "total luciferase, z-score": -0.575, "Call": "inactive"}
{"gene knocked down": "KIF1B", "siRNA no.": 3, "total luciferase, z-score": 0.596, "Call": "inactive"}
{"gene knocked down": "BOK", "siRNA no.": 1, "total luciferase, z-score": 1.33, "Call": "inactive"}
{"gene knocked down": "BOK", "siRNA no.": 2, "total luciferase, z-score": -0.0525, "Call": "inactive"}
{"gene knocked down": "BOK", "siRNA no.": 3, "total luciferase, z-score": -1.27, "Call": "inactive"}
{"gene knocked down": "GAS1", "siRNA no.": 1, "total luciferase, z-score": 0.131, "Call": "inactive"}
{"gene knocked down": "GAS1", "siRNA no.": 2, "total luciferase, z-score": 0.36, "Call": "inactive"}
{"gene knocked down": "GAS1", "siRNA no.": 3, "total luciferase, z-score": -0.887, "Call": "inactive"}
{"gene knocked down": "MALRD1", "siRNA no.": 1, "total luciferase, z-score": 0.00286, "Call": "inactive"}
{"gene knocked down": "MALRD1", "siRNA no.": 2, "total luciferase, z-score": -0.138, "Call": "inactive"}
{"gene knocked down": "MALRD1", "siRNA no.": 3, "total luciferase, z-score": 0.512, "Call": "inactive"}
{"gene knocked down": "MALRD1", "siRNA no.": 4, "total luciferase, z-score": 1.45, "Call": "inactive"}
{"gene knocked down": "MALRD1", "siRNA no.": 5, "total luciferase, z-score": -0.371, "Call": "inactive"}
{"gene knocked down": "MALRD1", "siRNA no.": 6, "total luciferase, z-score": 0.736, "Call": "inactive"}
{"gene knocked down": "MAP7", "siRNA no.": 1, "total luciferase, z-score": -0.193, "Call": "inactive"}
{"gene knocked down": "MAP7", "siRNA no.": 2, "total luciferase, z-score": 0.593, "Call": "inactive"}
{"gene knocked down": "MAP7", "siRNA no.": 3, "total luciferase, z-score": 0.278, "Call": "inactive"}
{"gene knocked down": "PARP3", "siRNA no.": 1, "total luciferase, z-score": -1.47, "Call": "inactive"}
{"gene knocked down": "PARP3", "siRNA no.": 2, "total luciferase, z-score": -1.43, "Call": "inactive"}
{"gene knocked down": "PARP3", "siRNA no.": 3, "total luciferase, z-score": -1.08, "Call": "inactive"}
{"gene knocked down": "FES", "siRNA no.": 1, "total luciferase, z-score": 0.388, "Call": "inactive"}
{"gene knocked down": "FES", "siRNA no.": 2, "total luciferase, z-score": -0.394, "Call": "inactive"}
{"gene knocked down": "FES", "siRNA no.": 3, "total luciferase, z-score": -2.14, "Call": "inactive"}
{"gene knocked down": "MPC2", "siRNA no.": 1, "total luciferase, z-score": 0.98, "Call": "inactive"}
{"gene knocked down": "MPC2", "siRNA no.": 2, "total luciferase, z-score": 0.0752, "Call": "inactive"}
{"gene knocked down": "MPC2", "siRNA no.": 3, "total luciferase, z-score": 0.0269, "Call": "inactive"}
{"gene knocked down": "PSMB9", "siRNA no.": 1, "total luciferase, z-score": -0.414, "Call": "inactive"}
{"gene knocked down": "PSMB9", "siRNA no.": 2, "total luciferase, z-score": -2.15, "Call": "inactive"}
{"gene knocked down": "PSMB9", "siRNA no.": 3, "total luciferase, z-score": -0.348, "Call": "inactive"}
{"gene knocked down": "KPNA1", "siRNA no.": 1, "total luciferase, z-score": 1.67, "Call": "inactive"}
{"gene knocked down": "KPNA1", "siRNA no.": 2, "total luciferase, z-score": -0.0846, "Call": "inactive"}
{"gene knocked down": "KPNA1", "siRNA no.": 3, "total luciferase, z-score": 0.908, "Call": "inactive"}
{"gene knocked down": "TMEM135", "siRNA no.": 1, "total luciferase, z-score": 0.178, "Call": "inactive"}
{"gene knocked down": "TMEM135", "siRNA no.": 2, "total luciferase, z-score": 1.03, "Call": "inactive"}
{"gene knocked down": "TMEM135", "siRNA no.": 3, "total luciferase, z-score": 0.251, "Call": "inactive"}
{"gene knocked down": "ING1", "siRNA no.": 1, "total luciferase, z-score": -1.13, "Call": "inactive"}
{"gene knocked down": "ING1", "siRNA no.": 2, "total luciferase, z-score": -0.947, "Call": "inactive"}
{"gene knocked down": "ING1", "siRNA no.": 3, "total luciferase, z-score": 2.22, "Call": "inactive"}

Copied from above for reference:
{"gene knocked down": "FES", "siRNA no.": 2, "total luciferase, z-score": -0.394, "Call": "inactive"}
{"gene knocked down": "FES", "siRNA no.": 3, "total luciferase, z-score": -2.14, "Call": "inactive"}
{"gene knocked down": "MPC2", "siRNA no.": 1, "total luciferase, z-score": 0.98, "Call": "inactive"}
{"gene knocked down": "MPC2", "siRNA no.": 2, "total luciferase, z-score": 0.0752, "Call": "inactive"}
{"gene knocked down": "MPC2", "siRNA no.": 3, "total luciferase, z-score": 0.0269, "Call": "inactive"}
{"gene knocked down": "PSMB9", "siRNA no.": 1, "total luciferase, z-score": -0.414, "Call": "inactive"}
